{"source": "PubChem BioAssay AID504774 (Drosophila RNAi Screening Center, 2011)", "purpose": "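Genes required for cells to withstand methyl methanesulphonate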 (primary screen)", "cell system": "Drosophila Kc167 cells", "reagents": "long dsRNA against Drosophila genes, about 0.25 µg dsRNA per well", "time to read-out": "about 6 days: 3 days knock-down, then 3 days with or without MMS", "treatment": "methyl methanesulphonate 0.004% (w/v) for 3 days after knock-down", "read-out": "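ATP-dependent luminescence as a measure of live cells in MMS-exposed wells, quantile normalised within each plate, with replicate values also given as a mean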", "reading the numbers": "mean viability with MMS: higher = more surviving cells after MMS", "note": "In all, the deposit lists about 23,000 reagents; below is a random part of those with a known target gene and a result. 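Values are quantile-normalised luminescence on an arbitrary scale; higher means more cells surviving MMS.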 The numbers tell different reagents against one gene apart. Further read-outs or replicates are left out here."}
{"Gene":"mora","dsRNA no.":1,"mean viability with MMS":3.75e6}
{"Gene":"CG1468","dsRNA no.":1,"mean viability with MMS":3.50e6}
{"Gene":"CG3739","dsRNA no.":1,"mean viability with MMS":3.60e6}
{"Gene":"Obp46a","dsRNA no.":1,"mean viability with MMS":3.49e6}
{"Gene":"mRpL28","dsRNA no.":1,"mean viability with MMS":3.54e6}
{"Gene":"Dred","dsRNA no.":1,"mean viability with MMS":3.50e6}
{"Gene":"Dred","dsRNA no.":2,"mean viability with MMS":1.98e6}
{"Gene":"mtg","dsRNA no.":1,"mean viability with MMS":3.60e6}
{"Gene":"side-V","dsRNA no.":1,"mean viability with MMS":3.52e6}
{"Gene":"side-V","dsRNA no.":2,"mean viability with MMS":2.02e6}
{"Gene":"side-V","dsRNA no.":3,"mean viability with MMS":3.37e6}
{"Gene":"CG15930","dsRNA no.":1,"mean viability with MMS":3.59e6}
{"Gene":"Cpr49Aa","dsRNA no.":1,"mean viability with MMS":3.60e6}
{"Gene":"CG9330","dsRNA no.":1,"mean viability with MMS":3.57e6}
{"Gene":"CG31730","dsRNA no.":1,"mean viability with MMS":3.48e6}
{"Gene":"Vti1a","dsRNA no.":1,"mean viability with MMS":3.29e6}
{"Gene":"CG13361","dsRNA no.":1,"mean viability with MMS":3.76e6}
{"Gene":"CG34181","dsRNA no.":1,"mean viability with MMS":3.46e6}
{"Gene":"VGlut","dsRNA no.":1,"mean viability with MMS":3.67e6}
{"Gene":"VGlut","dsRNA no.":2,"mean viability with MMS":3.38e6}
{"Gene":"CG4267","dsRNA no.":1,"mean viability with MMS":3.58e6}
{"Gene":"TkR86C","dsRNA no.":1,"mean viability with MMS":3.56e6}
{"Gene":"CG42673","dsRNA no.":1,"mean viability with MMS":3.53e6}
{"Gene":"CG42673","dsRNA no.":2,"mean viability with MMS":2.83e6}
{"Gene":"CG42673","dsRNA no.":3,"mean viability with MMS":3.74e6}
{"Gene":"CG42673","dsRNA no.":4,"mean viability with MMS":3.69e6}
{"Gene":"CG42673","dsRNA no.":5,"mean viability with MMS":3.80e6}
{"Gene":"CG42673","dsRNA no.":6,"mean viability with MMS":3.68e6}

2 entries from above, set out differently.
| Gene | dsRNA no. | mean viability with MMS |
| --- | --- | --- |
| CG42673 | 1 | 3.53e6 |
| CG42673 | 2 | 2.83e6 |
